Reference: patent publication US8039514B2, “Sulfonamide compounds and use thereof” (Asahi Kasei Pharma Corporation, priority 2008, dated 2011)
Some of these results come from one statement about several compounds together.

Biological target: T1, human calcium-sensing receptor (CaSR) (Homo sapiens, UniProt P41180)
T1 construct: expressed in transfected cells
T1 sequence (P41180 20-1078): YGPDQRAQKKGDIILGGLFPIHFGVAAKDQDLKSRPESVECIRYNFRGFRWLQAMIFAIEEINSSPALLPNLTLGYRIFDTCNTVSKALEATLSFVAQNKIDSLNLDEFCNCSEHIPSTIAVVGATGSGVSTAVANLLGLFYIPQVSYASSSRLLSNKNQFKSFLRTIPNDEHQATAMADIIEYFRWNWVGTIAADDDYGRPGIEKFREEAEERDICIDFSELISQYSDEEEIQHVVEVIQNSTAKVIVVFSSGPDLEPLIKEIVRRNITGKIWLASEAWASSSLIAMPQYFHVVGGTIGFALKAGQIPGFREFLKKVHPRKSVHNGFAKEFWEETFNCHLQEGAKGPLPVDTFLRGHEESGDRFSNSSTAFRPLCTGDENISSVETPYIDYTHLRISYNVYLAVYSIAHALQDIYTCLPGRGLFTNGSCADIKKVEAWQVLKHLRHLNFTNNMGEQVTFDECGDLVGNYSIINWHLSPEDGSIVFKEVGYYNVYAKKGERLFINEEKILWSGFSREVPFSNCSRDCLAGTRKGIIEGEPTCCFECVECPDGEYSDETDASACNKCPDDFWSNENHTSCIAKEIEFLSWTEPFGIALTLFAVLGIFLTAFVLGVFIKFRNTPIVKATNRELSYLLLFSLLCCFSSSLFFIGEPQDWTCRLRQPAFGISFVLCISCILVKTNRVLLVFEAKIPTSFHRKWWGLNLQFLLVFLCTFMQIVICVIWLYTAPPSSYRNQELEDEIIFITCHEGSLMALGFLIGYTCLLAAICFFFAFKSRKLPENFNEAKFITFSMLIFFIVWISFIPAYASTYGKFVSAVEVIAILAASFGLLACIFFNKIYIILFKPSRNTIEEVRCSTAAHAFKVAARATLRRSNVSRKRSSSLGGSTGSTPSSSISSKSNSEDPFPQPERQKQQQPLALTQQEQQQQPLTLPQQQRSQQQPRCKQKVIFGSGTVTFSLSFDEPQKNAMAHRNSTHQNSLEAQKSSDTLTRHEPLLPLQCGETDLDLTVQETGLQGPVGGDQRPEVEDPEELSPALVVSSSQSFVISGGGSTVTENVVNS
Assay: intracellular Ca assay, CaSR antagonist activity in HEK293/hCaSR cells
Format: cell-based
Conditions: Fura2-AM, inhibition of response to calcium chloride ligand solution
Outline: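 HEK293/hCaSR cells were loaded with Fura2-AM and pre-incubated with compound for 160 s at 37° C in HEPES buffer (pH 7.4, 0.8 mM CaCl2), then challenged with calcium ligand solution. Read-out was the peak 340/380 nm fluorescence ratio; inhibition is relative to no-compound (0%) and no-calcium-ligand (100%) controls.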

Row | SMILES | IC50 values according to the intracellular Ca assay (CaSR antagonist activity) [μM]
1 | CCc1cc(-c2cc(C)ccc2CCC(=O)O)ccc1S(=O)(=O)N(C)C[C@H](O)CNC(C)(C)CCCc1ccccc1 [Exp. 5-68, (R)-3-(3′-ethyl-4′-(N-(2-hydroxy-3-(2-methyl-5-phenylpentan-2-ylamino)propyl)-N-methylsulfamoyl)-5-methylbiphenyl-2-yl)propionic acid] | 1.0 to 0.3
2 | Cc1cc(S(=O)(=O)N(C)C[C@H](O)CNC(C)(C)CCCc2ccccc2)ccc1-c1cc(CCC(=O)O)ccc1C [Exp. 5-69, (R)-3-(4′-(N-(2-hydroxy-3-(2-methyl-5-phenylpentan-2-ylamino)propyl)-N-methylsulfamoyl)-2′,6-dimethylbiphenyl-3-yl)propionic acid] | 1.0 to 0.3
3 | CCc1cc(-c2cc(CCC(=O)O)ccc2C)ccc1S(=O)(=O)N(C)C[C@H](O)CNC(C)(C)CCCc1ccccc1 [Exp. 5-71, (R)-3-(3′-ethyl-4′-(N-(2-hydroxy-3-(2-methyl-5-phenylpentan-2-ylamino)propyl)-N-methylsulfamoyl)-6-methylbiphenyl-3-yl)propionic acid] | 1.0 to 0.3
4 | CCc1cc(-c2c(F)cc(F)cc2CCC(=O)O)ccc1S(=O)(=O)N(C)C[C@H](O)CNC(C)(C)CCCc1ccccc1 [Exp. 5-73, (R)-3-(3′-ethyl-4,6-difluoro-4′-(N-(2-hydroxy-3-(2-methyl-5-phenylpentan-2-ylamino)propyl)-N-methylsulfamoyl)biphenyl-2-yl)propionic acid] | 1.0 to 0.3
5 | CCc1cc(-c2ccc(CCC(=O)O)cc2C)ccc1S(=O)(=O)N(C)C[C@H](O)CNC(C)(C)CCCc1ccccc1 [Exp. 5-76, (R)-3-(3′-ethyl-4′-(N-(2-hydroxy-3-(2-methyl-5-phenylpentan-2-ylamino)propyl)-N-methylsulfamoyl)-2-methylbiphenyl-4-yl)propionic acid] | 1.0 to 0.3
6 | Cc1cc(CCC(=O)O)ccc1-c1cc(C(F)(F)F)cc(S(=O)(=O)N(C)C[C@H](O)CNC(C)(C)CC2Cc3ccccc3C2)c1 [Exp. 5-80, (R)-3-(3′-(N-(3-(1-(2,3-dihydro-1H-inden-2-yl)-2-methylpropan-2-ylamino)-2-hydroxypropyl)-N-methylsulfamoyl)-2-methyl-5′-(trifluoromethyl)biphenyl-4-yl)propionic acid] | 1.0 to 0.3
7 | CN(C[C@H](O)CNC(C)(C)CC1Cc2ccccc2C1)S(=O)(=O)c1cc(-c2ccc(F)cc2CCC(=O)O)cc(C(F)(F)F)c1 [Exp. 5-81, (R)-3-(3′-(N-(3-(1-(2,3-dihydro-1H-inden-2-yl)-2-methylpropan-2-ylamino)-2-hydroxypropyl)-N-methylsulfamoyl)-4-fluoro-5′-(trifluoromethyl)biphenyl-2-yl)propionic acid] | 3.0 to 1.0
8 | Cc1cc(CCC(=O)O)sc1-c1cc(C(F)(F)F)cc(S(=O)(=O)N(C)C[C@H](O)CNC(C)(C)CC2Cc3ccccc3C2)c1 [Exp. 6-2, (R)-3-(5-(3-(N-(3-(1-(2,3-dihydro-1H-inden-2-yl)-2-methylpropan-2-ylamino)-2-hydroxypropyl)-N-methylsulfamoyl)-5-(trifluoromethyl)phenyl)-4-methylthiophen-2-yl)propionic acid] | 1.0 to 0.3
9 | Cc1cc(CCC(=O)O)sc1-c1cccc(S(=O)(=O)N(C)C[C@H](O)CNC(C)(C)CC2Cc3ccccc3C2)c1 [Exp. 6-3, (R)-3-(5-(3-(N-(3-(1-(2,3-dihydro-1H-inden-2-yl)-2-methylpropan-2-ylamino)-2-hydroxypropyl)-N-methylsulfamoyl)phenyl)-4-methylthiophen-2-yl)propionic acid] | 1.0 to 0.3
10 | CN(C[C@H](O)CNC(C)(C)CCCc1ccccc1)S(=O)(=O)c1c(Cl)cc(-c2ccccc2CCC(=O)O)cc1Cl [Exp. 6-5, (R)-3-(3′,5′-dichloro-4′-(N-(2-hydroxy-3-(2-methyl-5-phenylpentan-2-ylamino)propyl)-N-methylsulfamoyl)biphenyl-2-yl)propionic acid] | 1.0 to 0.3
11 | CN(C[C@H](O)CNC(C)(C)CCCc1ccccc1)S(=O)(=O)c1c(Cl)cc(-c2cccc(CCC(=O)O)n2)cc1Cl [Exp. 6-7, (R)-3-(6-(3,5-dichloro-4-(N-(2-hydroxy-3-(2-methyl-5-phenylpentan-2-ylamino)propyl)-N-methylsulfamoyl)phenyl)pyridin-2-yl)propionic acid] | 1.0 to 0.3
12 | CCc1cc(-c2c(C)cccc2CCC(=O)O)ccc1S(=O)(=O)N(C)C[C@H](O)CNC(C)(C)CC1Cc2ccccc2C1 [Exp. 7-1, (R)-3-(4′-(N-(3-(1-(2,3-dihydro-1H-inden-2-yl)-2-methylpropan-2-ylamino)-2-hydroxypropyl)-N-methylsulfamoyl)-3′-ethyl-6-methylbiphenyl-2-yl)propionic acid] | 3.0 to 1.0
13 | CCc1cc(-c2c(C)cccc2CCC(=O)O)ccc1S(=O)(=O)N(C)C[C@H](O)CNC(C)(C)CCCc1ccccc1 [Exp. 7-2, (R)-3-(3′-ethyl-4′-(N-(2-hydroxy-3-(2-methyl-5-phenylpentan-2-ylamino)propyl)-N-methylsulfamoyl)-6-methylbiphenyl-2-yl)propionic acid] | 1.0 to 0.3
14 | CN(C[C@H](O)CNC(C)(C)CC1Cc2ccccc2C1)S(=O)(=O)c1cc(-c2ncccc2CCC(=O)O)cc(C(F)(F)F)c1 [Exp. 8-2, (R)-3-(2-(3-(N-(3-(1-(2,3-dihydro-1H-inden-2-yl)-2-methylpropan-2-ylamino)-2-hydroxypropyl)-N-methylsulfamoyl)-5-(trifluoromethyl)phenyl)pyridin-3-yl)propionic acid] | 3.0 to 1.0
15 | CN(C[C@H](O)CNC(C)(C)CCCc1ccccc1)S(=O)(=O)c1cc(-c2ncccc2CCC(=O)O)cc(C(F)(F)F)c1 [Exp. 8-3, (R)-3-(2-(3-(N-(2-hydroxy-3-(2-methyl-5-phenylpentan-2-ylamino)propyl)-N-methylsulfamoyl)-5-(trifluoromethyl)phenyl)pyridin-3-yl)propionic acid] | 1.0 to 0.3
16 | CN(C[C@H](O)CNC(C)(C)CC1Cc2ccccc2C1)S(=O)(=O)c1cccc(-c2ccc(CCC(=O)O)s2)c1 [Exp. 8-4, (R)-3-(5-(3-(N-(3-(1-(2,3-dihydro-1H-inden-2-yl)-2-methylpropan-2-ylamino)-2-hydroxypropyl)-N-methylsulfamoyl)phenyl)thiophen-2-yl)propionic acid] | 1.0 to 0.3
17 | CN(C[C@H](O)CNC(C)(C)CCCc1ccsc1)S(=O)(=O)c1cc(CCC(=O)O)cc(C(F)(F)F)c1 [Exp. 8-6, (R)-3-(3-(N-(2-hydroxy-3-(2-methyl-5-(thiophen-3-yl)pentan-2-ylamino)propyl)-N-methylsulfamoyl)-5-(trifluoromethyl)phenyl)propionic acid] | 1.0 to 0.3
